In article PMC7441008:
These are yes or no findings as the source states them, for the method shown. Binding seen in cells or lysates may run through a third protein. Some results given as binding are weak or reduced against the parent protein; the word gives no strength. Sequences can lack the tags named with a protein.

The chains behind the UniProt entries cited, without tags or fusion partners.
UniProt P42229: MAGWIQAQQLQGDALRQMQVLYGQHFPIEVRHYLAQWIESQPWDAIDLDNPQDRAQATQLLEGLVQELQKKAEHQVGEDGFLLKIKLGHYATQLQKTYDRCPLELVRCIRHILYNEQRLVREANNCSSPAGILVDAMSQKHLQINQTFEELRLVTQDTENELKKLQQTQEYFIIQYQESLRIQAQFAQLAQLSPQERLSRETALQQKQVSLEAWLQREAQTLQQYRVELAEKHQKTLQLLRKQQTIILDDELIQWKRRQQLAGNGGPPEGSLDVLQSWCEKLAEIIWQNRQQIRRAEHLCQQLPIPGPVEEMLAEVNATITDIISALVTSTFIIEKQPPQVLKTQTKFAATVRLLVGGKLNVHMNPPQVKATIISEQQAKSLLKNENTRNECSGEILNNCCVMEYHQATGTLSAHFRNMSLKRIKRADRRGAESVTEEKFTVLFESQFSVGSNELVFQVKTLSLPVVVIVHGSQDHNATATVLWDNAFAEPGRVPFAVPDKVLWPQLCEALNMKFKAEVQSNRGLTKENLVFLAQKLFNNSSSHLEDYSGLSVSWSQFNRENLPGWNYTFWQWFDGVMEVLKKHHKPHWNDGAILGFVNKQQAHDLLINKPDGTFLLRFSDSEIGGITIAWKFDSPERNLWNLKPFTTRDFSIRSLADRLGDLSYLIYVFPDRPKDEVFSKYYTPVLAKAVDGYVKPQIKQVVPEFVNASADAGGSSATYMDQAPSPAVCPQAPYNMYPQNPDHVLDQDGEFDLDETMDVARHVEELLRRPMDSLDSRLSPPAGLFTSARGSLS
UniProt P51692: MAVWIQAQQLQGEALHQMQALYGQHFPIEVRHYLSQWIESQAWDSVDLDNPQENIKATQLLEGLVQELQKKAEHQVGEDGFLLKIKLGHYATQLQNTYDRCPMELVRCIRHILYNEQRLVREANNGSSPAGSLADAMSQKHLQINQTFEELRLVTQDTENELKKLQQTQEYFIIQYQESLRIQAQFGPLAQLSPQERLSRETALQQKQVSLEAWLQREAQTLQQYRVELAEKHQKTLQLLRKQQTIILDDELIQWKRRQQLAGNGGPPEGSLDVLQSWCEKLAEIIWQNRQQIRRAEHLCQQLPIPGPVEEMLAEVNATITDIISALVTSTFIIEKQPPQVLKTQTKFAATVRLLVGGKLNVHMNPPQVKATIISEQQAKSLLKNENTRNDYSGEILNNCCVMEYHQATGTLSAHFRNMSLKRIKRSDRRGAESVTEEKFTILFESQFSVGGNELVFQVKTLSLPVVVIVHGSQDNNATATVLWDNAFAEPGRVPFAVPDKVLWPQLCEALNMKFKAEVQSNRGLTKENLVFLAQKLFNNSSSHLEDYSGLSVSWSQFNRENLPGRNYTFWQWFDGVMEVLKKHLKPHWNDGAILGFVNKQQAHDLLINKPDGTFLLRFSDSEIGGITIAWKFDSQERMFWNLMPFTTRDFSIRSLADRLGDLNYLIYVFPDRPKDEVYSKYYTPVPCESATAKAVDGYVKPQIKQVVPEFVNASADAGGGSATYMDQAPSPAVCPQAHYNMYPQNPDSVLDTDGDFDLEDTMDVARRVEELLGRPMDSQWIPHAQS

Biological target: T1, Myc-tagged STAP-1 (signal-transducing adapter protein-1) (UniProt Q9ULZ2)
T1 sequence: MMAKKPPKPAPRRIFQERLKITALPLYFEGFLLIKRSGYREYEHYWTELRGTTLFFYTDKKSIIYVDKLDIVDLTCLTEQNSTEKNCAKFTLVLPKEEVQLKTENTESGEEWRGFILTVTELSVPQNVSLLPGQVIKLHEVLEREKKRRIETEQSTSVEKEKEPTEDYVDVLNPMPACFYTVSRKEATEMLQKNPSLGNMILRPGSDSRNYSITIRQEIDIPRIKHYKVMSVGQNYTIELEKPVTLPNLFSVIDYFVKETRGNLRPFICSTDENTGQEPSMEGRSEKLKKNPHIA
Assay: co-IP; 293T cells co-expressing Myc-tagged STAP-1 and the partner; lysis in 50 mM Tris-HCl pH 7.6, 0.15 M NaCl, 1% Nonidet P-40; immunoprecipitated with anti-Myc antibody, blotted for the partner

Row | Substance | binding
1 | STAT5a (from UniProt P42229 1-794) | binds
2 | STAT5b (from UniProt P51692 1-787) | binds
